{"sequences": {"note": "The chains behind the UniProt entries cited, without tags or fusion partners. Where a name states a change or a piece, a line headed by the entry shows the natural chain unless it says otherwise.", "UniProt P16809": "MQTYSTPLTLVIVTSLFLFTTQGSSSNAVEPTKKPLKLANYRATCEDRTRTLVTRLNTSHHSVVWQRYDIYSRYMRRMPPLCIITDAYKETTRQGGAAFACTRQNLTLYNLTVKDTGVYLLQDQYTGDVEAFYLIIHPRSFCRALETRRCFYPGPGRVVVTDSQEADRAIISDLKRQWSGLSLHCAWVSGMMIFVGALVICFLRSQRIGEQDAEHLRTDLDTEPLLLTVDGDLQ"}, "source": "patent US20250127885A1", "target": "soluble wild-type HCMV gp34 ectodomain (human cytomegalovirus (HCMV), strain AD169) (UniProt P16809)", "test": "ELISA, plate coated human Fc, FLAG-tagged WT gp34, anti-FLAG (M2)-HRP", "note": "No constants are given. Whether binding was seen depends on the method and setting. Some results given as binding are weak or reduced against the parent protein; the word gives no strength."}
{"substance": "human IgG1 Fc (no Fab arms) (from UniProt P0DOX5 230-449)", "values": [{"measurement": "binding", "result": "binds"}]}
